Test: Bitterness assessments test (triangle test, trained panelists)
Conditions: for bitterness and aftertaste of drink formulation: 200 mg in flavored drink formula dissolved in 10 Oz cold water, with or without 200 mg caffeine anhydrous, two groups of three trained panelists
Procedure: Various bitterness assessments tests were conducted using triangle test method in order to compare formulations made with 1,3,7-trimethyluric acid or salt versus formulations made using theacrine (1,3,7,9-tetramethyluric acid);
The flavor profile on all formulations was kept in the same amounts in order to have no influence from it. The type of color and the color amount was the same in both formulas so that when dissolved into the water will match. A control sample was also prepared as “placebo” and given to both groups of panelist in a random order.
Two groups of three trained panelists were chosen for the triangle test in order to identify the odd samples.
To the first group of panelist, three drink samples were given in random order to taste: two of the same sample and one that was different:
First sample formula contains the following: […]
The second formula contains the following: […]
All samples formulas were dissolved separately into 10 Oz of cold water and shook to dissolve. The cups were filled in with each formula drink and were given to the first group of panelists in random order. Panelists were then asked to evaluate the overall attributes and identify the odd sample
The same kind of experiment was repeated using the second group of panelists comparing now the 1,3,7-trimethyluric sodium salt versus theacrine (1,3,7,9-tetramethyluric acid) with the addition of caffeine anhydrous in each formulation on equal amounts.
First formula contains the following: […]
Second formula contains the following: […]
Caffeine was added in both formulations in equal amounts and the flavor profiles were kept the same as in the first set of experiments. The first sample and the second sample formulas were dissolved separately into 10 Oz of cold water and shook to dissolve. 3 cups, 2 of which were filled in with first formula drink and a third cup filled with the second sample formula drink, were given to the first group of panelists in random order. Panelists were then asked to evaluate the overall attributes and identify the odd sample.

Structure (SMILES) | bitterness and aftertaste of drink formulation | difference in flavor and taste versus control (placebo) sample (200 mg in flavored drink formula in 10 Oz cold water, alone or combined with caffeine)
Cn1c(=O)c2c(n(C)c1=O)n(C)c(=O)n2C [theacrine, 1,3,7,9-tetramethyluric acid, reference compound] | significant and intolerable | 
Cn1c(=O)c2c([nH]c(=O)n2C)n(C)c1=O [1,3,7-trimethyluric acid] | almost no bitterness or aftertastes | No significant difference

Source: patent publication US20200046712A1, “PROCESS FOR MAKING 1,3,7- TRIMETHYLURIC ACID WATER SOLUBLE SALTS OR CO-CRYSTALS AND THEIR USAGE IN DIETARY SUPPLEMENTS OR FUNCTIONAL FOODS FORMULATIONS” (Arcadia Biotechnology Ltd., priority 2018, published 2020)
